Data reported in patent US10258633B2, “Treatment of fibrosis using FXR ligands” (Intercept Pharmaceuticals, Inc., priority 2004, dated 2019).
Some results were stated once for a whole list of compounds, not compound by compound.

Tested on: hepatic stellate cells (HSC)
Assay: Quantitative RT-PCR of FXR target genes (SHP, BSEP, NTCP, CYP7A1) in HSC
Details: CDCA 20 μM

Structure (SMILES): C[C@H](CCC(=O)O)[C@H]1CC[C@H]2[C@@H]3[C@H](O)C[C@@H]4C[C@H](O)CC[C@]4(C)[C@H]3CC[C@]12C [CDCA, chenodeoxycholic acid, reference compound]
- reduction of CYP7A1 mRNA: 50-70%
- reduction of NTCP mRNA: 50-70%
